# Patent US20120283291A1, “SOLID PHARMACEUTICAL COMPOSITION COMPRISING DONEPEZIL HYDROCHLORIDE” (KRKA, TOVARNA ZDRAVIL D.D., NOVO MESTO, priority 2004, published 2012)
# Where a name gives a salt, the structure may show the parent alone.
# Assay: Water content by Karl Fischer method (Ph. Eur. 2.5.12)
# Format: physicochemical
# Details: active ingredient used in Example 1
smiles,measurement,value
COc1cc2c(cc1OC)C(=O)C(CC1CCN(Cc3ccccc3)CC1)C2 (stereo not shown) [donepezil hydrochloride hydrate],water content of donepezil hydrochloride hydrate,5.0%
